No constants are given. Whether binding was seen depends on the method and setting. For part of these data: In cells and extracts the contact can be indirect. Some binding calls cover weakened binding; strength is not graded here. Where a sequence is shown, tags or fusion partners need not be part of it.
What was measured:
[1] = target: T1, GAL4 binding domain fused to ATG8H (BD-ATG8H) (Arabidopsis thaliana) (UniProt Q8S925); assay: two-hybrid
T1 sequence: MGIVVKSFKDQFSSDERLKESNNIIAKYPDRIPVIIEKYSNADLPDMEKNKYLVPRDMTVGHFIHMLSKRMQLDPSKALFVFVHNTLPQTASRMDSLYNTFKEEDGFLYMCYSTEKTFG

[2] = target: T2, GFP-ATG8A (transgenic line ProUBQ10-GFP-ATG8A) (Arabidopsis thaliana) (UniProt Q8LEM4); assay: co-IP
T2 sequence: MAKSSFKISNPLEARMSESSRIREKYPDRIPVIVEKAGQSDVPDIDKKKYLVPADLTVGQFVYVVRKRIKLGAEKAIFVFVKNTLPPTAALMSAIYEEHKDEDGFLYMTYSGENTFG

| Binder | binding [1] | binding [2] |
| --- | --- | --- |
| GAL4 activation domain fused to ABI3 (AD-ABI3) (protein, UniProt Q01593 1-720) MKSLHVAANAGDLAEDCGILGGDADDTVLMDGIDEVGREIWLDDHGGDNNHVHGHQDDDLIVHHDPSIFYGDLPTLPDFPCMSSSSSSSTSPAPVNAIVSSASSSSAASSSTSSAASWAILRSDGEDPTPNQNQYASGNCDDSSGALQSTASMEIPLDSSQGFGCGEGGGDCIDMMETFGYMDLLDSNEFFDTSAIFSQDDDTQNPNLMDQTLERQEDQVVVPMMENNSGGDMQMMNSSLEQDDDLAAVFLEWLKNNKETVSAEDLRKVKIKKATIESAARRLGGGKEAMKQLLKLILEWVQTNHLQRRRTTTTTTNLSYQQSFQQDPFQNPNPNNNNLIPPSDQTCFSPSTWVPPPPQQQAFVSDPGFGYMPAPNYPPQPEFLPLLESPPSWPPPPQSGPMPHQQFPMPPTSQYNQFGDPTGFNGYNMNPYQYPYVPAGQMRDQRLLRLCSSATKEARKKRMARQRRFLSHHHRHNNNNNNNNNNQQNQTQIGETCAAVAPQLNPVATTATGGTWMYWPNVPAVPPQLPPVMETQLPTMDRAGSASAMPRQQVVPDRRQGWKPEKNLRFLLQKVLKQSDVGNLGRIVLPKKEAETHLPELEARDGISLAMEDIGTSRVWNMRYRFWPNNKSRMYLLENTGDFVKTNGLQEGDFIVIYSDVKCGKYLIRGVKVRQPSGQKPEAPPSSAATKRQNKSQRNINNNSPSANVVVASPTSQTVK | binds |  |
| GAL4 activation domain fused to ABI5 (AD-ABI5) (protein, UniProt Q9SJN0 1-442) MVTRETKLTSEREVESSMAQARHNGGGGGENHPFTSLGRQSSIYSLTLDEFQHALCENGKNFGSMNMDEFLVSIWNAEENNNNQQQAAAAAGSHSVPANHNGFNNNNNNGGEGGVGVFSGGSRGNEDANNKRGIANESSLPRQGSLTLPAPLCRKTVDEVWSEIHRGGGSGNGGDSNGRSSSSNGQNNAQNGGETAARQPTFGEMTLEDFLVKAGVVREHPTNPKPNPNPNQNQNPSSVIPAAAQQQLYGVFQGTGDPSFPGQAMGVGDPSGYAKRTGGGGYQQAPPVQAGVCYGGGVGFGAGGQQMGMVGPLSPVSSDGLGHGQVDNIGGQYGVDMGGLRGRKRVVDGPVEKVVERRQRRMIKNRESAARSRARKQAYTVELEAELNQLKEENAQLKHALAELERKRKQQYFESLKSRAQPKLPKSNGRLRTLMRNPSCPL | binds |  |
| cMyc-ABI5 (transgenic line 35S:cMyc-ABI5) (protein, UniProt Q9SJN0 1-442) MVTRETKLTSEREVESSMAQARHNGGGGGENHPFTSLGRQSSIYSLTLDEFQHALCENGKNFGSMNMDEFLVSIWNAEENNNNQQQAAAAAGSHSVPANHNGFNNNNNNGGEGGVGVFSGGSRGNEDANNKRGIANESSLPRQGSLTLPAPLCRKTVDEVWSEIHRGGGSGNGGDSNGRSSSSNGQNNAQNGGETAARQPTFGEMTLEDFLVKAGVVREHPTNPKPNPNPNQNQNPSSVIPAAAQQQLYGVFQGTGDPSFPGQAMGVGDPSGYAKRTGGGGYQQAPPVQAGVCYGGGVGFGAGGQQMGMVGPLSPVSSDGLGHGQVDNIGGQYGVDMGGLRGRKRVVDGPVEKVVERRQRRMIKNRESAARSRARKQAYTVELEAELNQLKEENAQLKHALAELERKRKQQYFESLKSRAQPKLPKSNGRLRTLMRNPSCPL |  | binds |

Reference: publication doi:10.1101/2024.05.15.593177
